Among the data in publication PMC8648123, “An atypical EhGEF regulates phagocytosis in Entamoeba histolytica through EhRho1” (PLoS Pathogens, 2021) are binding values, retold here.

These are yes or no findings as the source states them, for the method shown. Binding seen in cells or lysates may run through a third protein. For part of these data: A result given as binding can be weak or reduced; the word gives no strength. Tags and fused reporters may be left off the sequences shown.

What all share (assay): pull-down; GST-tagged EhRho1 forms incubated with total lysate of trophozoites expressing HA-tag EhGEF; Glutathione-Sepharose; EhGEF detected with HA tag-specific antibody in western blot; only the target purified
Assay [1] has as its target GST-EhRho1-T34N (dominant negative form of EhRho1) (Entamoeba histolytica).
Assay [2] has as its target GST-tagged EhRho1 (wild type) (Entamoeba histolytica).
For assay [3], the target named is GST-EhRho1-Q63L (constitutively active form of EhRho1) (Entamoeba histolytica).

B1: HA-tagged EhGEF (full length wild type) (protein, UniProt C4LYE4 1-482)
chain: MSEELKISVESLRPALFEGWGKKQGGSVKTWKKRWFVLKDNRLWYFASKTAEEAKGFIELPPGTETKDVSQNKKFMFSINSRNTKGSRVFYIVTENSVDHATFFDAVRKVLNKSSPSSVPAAQSTTPVNVPKAENQFTLQGNNSSTGLSTSTQPVTSTIPPMADAVNIPNSLQPKCDGRKNINKIKAKISWLQVEGENVVEFWKYWMDSTPQSDALEVGQSIQFMLVVSGNTEKLSWRVFGPQGALIQNMVDFFWNVGAPDEEIDHLNNLGCQINPSEIGSWIDMSVMNGMDGGWFFKGDLVCDVIRDTADKCEYAERLITWAKEHGLNYLCQMGRDMGATPPRQSEFRFKLDGVISSRMEKVHSAFTTFGFPPIPVNIVEILTNLPPVYTYFYLCVIVSSEGFVKISILVPAPKQDVVDAFLFAMSDVKDTHIALHKDITNTLGNTPLFVEYCYLNPGYGYEVYKEGADVLVHYNLGSESR
As to B1, the binding result is “no binding” in assay [1], “binds” in assay [2] and “no binding” in assay [3].
